Results reported in paper PMC10088926, “Synthesis, DFT calculations, and anti-proliferative evaluation of pyrimidine and selenadiazolopyrimidine derivatives as dual Topoisomerase II and HSP90 inhibitors” (Journal of Enzyme Inhibition and Medicinal Chemistry, 2023).

Tested on: WI-38 (fibroblast-like foetal lung cell line)
Assay: In vitro cytotoxicity against normal WI-38 cell line
Conditions: fold versus doxorubicin

**Q.** For `CC1(C)CC(=O)C=C(Nc2c(N)[nH]c(=O)[nH]c2=O)C1` [Compound 3a, 6-Amino-5-((5,5-dimethyl-3-oxocyclohex-1-en-1-yl)amino)pyrimidine-2,4(1H,3H)-dione], which “increase of the inhibitory concentration on normal WI-38 cells relative to doxorubicin” value is on record?
**A.** four times; also recorded: four-fold

Entries after “also recorded” stand apart in the source; their conditions may differ.
